Measurements as given in publication PMC5986713.
Results are given in words; binding and its absence hold for the method and conditions named. In cells and extracts the contact can be indirect. Some binding calls cover weakened binding; strength is not graded here. Where a sequence is shown, tags or fusion partners need not be part of it.

Molecular target: T1, wild-type Smc2 fused to a Protein A tag (S. cerevisiae) (UniProt P38989)
T1 sequence: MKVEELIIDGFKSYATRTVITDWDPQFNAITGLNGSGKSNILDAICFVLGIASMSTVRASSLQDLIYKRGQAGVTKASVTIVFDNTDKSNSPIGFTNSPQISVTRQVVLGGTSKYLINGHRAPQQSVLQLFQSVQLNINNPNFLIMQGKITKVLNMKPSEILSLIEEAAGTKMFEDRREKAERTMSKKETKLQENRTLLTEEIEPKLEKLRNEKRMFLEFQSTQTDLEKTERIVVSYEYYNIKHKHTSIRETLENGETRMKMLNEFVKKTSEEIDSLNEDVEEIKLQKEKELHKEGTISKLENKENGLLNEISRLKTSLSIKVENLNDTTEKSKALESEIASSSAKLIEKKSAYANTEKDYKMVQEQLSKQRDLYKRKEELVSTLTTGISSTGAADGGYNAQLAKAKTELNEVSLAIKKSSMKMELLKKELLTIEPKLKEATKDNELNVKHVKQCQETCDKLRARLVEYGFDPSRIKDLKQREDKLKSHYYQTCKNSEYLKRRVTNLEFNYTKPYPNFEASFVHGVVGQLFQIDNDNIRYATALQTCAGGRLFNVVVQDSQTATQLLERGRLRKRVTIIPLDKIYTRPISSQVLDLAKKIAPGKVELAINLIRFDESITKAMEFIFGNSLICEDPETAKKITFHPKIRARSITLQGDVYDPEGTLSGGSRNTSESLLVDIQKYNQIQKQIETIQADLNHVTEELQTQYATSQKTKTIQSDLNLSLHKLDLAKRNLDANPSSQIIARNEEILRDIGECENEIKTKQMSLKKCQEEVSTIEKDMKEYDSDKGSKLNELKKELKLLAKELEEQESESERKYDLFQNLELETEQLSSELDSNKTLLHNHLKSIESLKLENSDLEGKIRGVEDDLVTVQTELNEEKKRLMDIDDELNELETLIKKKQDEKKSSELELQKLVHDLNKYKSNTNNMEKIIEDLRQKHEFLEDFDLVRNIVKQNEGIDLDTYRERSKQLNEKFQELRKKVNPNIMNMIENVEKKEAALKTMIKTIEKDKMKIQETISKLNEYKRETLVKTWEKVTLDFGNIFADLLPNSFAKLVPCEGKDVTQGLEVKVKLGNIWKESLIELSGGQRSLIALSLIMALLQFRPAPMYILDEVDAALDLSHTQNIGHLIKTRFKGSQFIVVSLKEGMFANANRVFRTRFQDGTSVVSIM
Test: co-IP; Protein A-tagged wild-type or ATPase mutant Smc2 or Smc4 precipitated by the Protein A tag from budding yeast (temperature-sensitive smc2-8 or smc4-1 background); coprecipitated Brn1-18myc detected by western blotting

B1: Brn1-18myc (protein, UniProt P38170 1-754)
chain: MTTQLRYENNDDDERVEYNLFTNRSTMMANFEEWIKMATDNKINSRNSWNFALIDYFYDLDVLKDGENNINFQKASATLDGCIKIYSSRVDSVTTETGKLLSGLAQRKTNGASNGDDSNGGNGEGLGGDSDEANIEIDPLTGMPISNDPDVNNTRRRVYNRVLETTLVEFETIKMKELDQELIIDPLFKKALVDFDEGGAKSLLLNTLNIDNTARVIFDASIKDTQNVGQGKLQRKEEELIERDSLVDDENEPSQSLISTRNDSTVNDSVISAPSMEDEILSLGMDFIKFDQIAVCEISGSIEQLRNVVEDINQAKDFIENVNNRFDNFLTEEELQAAVPDNAEDDSDGFDMGMQQELCYPDENHDNTSHDEQDDDNVNSTTGSIFEKDLMAYFDENLNRNWRGREHWKVRNFKKANLVNKESDLLEETRTTIGDTTDKNTTDDKSMDTKKKHKQKKVLEIDFFKTDDSFEDKVFASKGRTKIDMPIKNRKNDTHYLLPDDFHFSTDRITRLFIKPGQKMSLFSHRKHTRGDVSSGLFEKSTVSANHSNNDIPTIADEHFWADNYERKEQEEKEKEQSKEVGDVVGGALDNPFEDDMDGVDFNQAFEGTDDNEEASVKLDLQDDEDHKFPIRENKVTYSRVSKKVDVRRLKKNVWRSINNLIQEHDSRKNREQSSNDSETHTEDESTKELKFSDIIQGISKMYSDDTLKDISTSFCFICLLHLANEHGLQITHTENYNDLIVNYEDLATTQAAS
B1 was tested, and the binding was “binds”.
